These are yes or no findings as the source states them, for the method shown. Binding seen in cells or lysates may run through a third protein. A yes stands for co-enrichment or nearness to the bait. Other partners may have been found.
Target: HA-NSP9 (SARS-CoV-2 non-structural protein 9) (SARS-CoV-2) (UniProt P0DTD1)
Test: affinity purification with mass spectrometry

B1: Midline 1 (MID1), found by mass spectrometry with NSP9 (enzyme, UniProt O15344 1-667)
chain: METLESELTCPICLELFEDPLLLPCAHSLCFNCAHRILVSHCATNESVESITAFQCPTCRHVITLSQRGLDGLKRNVTLQNIIDRFQKASVSGPNSPSETRRERAFDANTMTSAEKVLCQFCDQDPAQDAVKTCVTCEVSYCDECLKATHPNKKPFTGHRLIEPIPDSHIRGLMCLEHEDEKVNMYCVTDDQLICALCKLVGRHRDHQVAALSERYDKLKQNLESNLTNLIKRNTELETLLAKLIQTCQHVEVNASRQEAKLTEECDLLIEIIQQRRQIIGTKIKEGKVMRLRKLAQQIANCKQCIERSASLISQAEHSLKENDHARFLQTAKNITERVSMATASSQVLIPEINLNDTFDTFALDFSREKKLLECLDYLTAPNPPTIREELCTASYDTITVHWTSDDEFSVVSYELQYTIFTGQANVVSLCNSADSWMIVPNIKQNHYTVHGLQSGTKYIFMVKAINQAGSRSSEPGKLKTNSQPFKLDPKSAHRKLKVSHDNLTVERDESSSKKSHTPERFTSQGSYGVAGNVFIDSGRHYWEVVISGSTWYAIGLAYKSAPKHEWIGKNSASWALCRCNNNWVVRHNSKEIPIEPAPHLRRVGILLDYDNGSIAFYDALNSIHLYTFDVAFAQPVCPTFTVWNKCLTIITGLPIPDHLDCTEQLP
  binding: binds

— publication PMC10580797
